Laboratory results published in paper PMC8329713, “The identification and structural analysis of potential 14-3-3 interaction sites on the bone regulator protein Schnurri-3” (Acta Crystallographica. Section F, Structural Biology …, 2021).
No constants are given. Whether binding was seen depends on the method and setting. Some entries that bind do so weakly or less than the wild type.

The chains behind the UniProt entries cited, without tags or fusion partners.
UniProt P31946: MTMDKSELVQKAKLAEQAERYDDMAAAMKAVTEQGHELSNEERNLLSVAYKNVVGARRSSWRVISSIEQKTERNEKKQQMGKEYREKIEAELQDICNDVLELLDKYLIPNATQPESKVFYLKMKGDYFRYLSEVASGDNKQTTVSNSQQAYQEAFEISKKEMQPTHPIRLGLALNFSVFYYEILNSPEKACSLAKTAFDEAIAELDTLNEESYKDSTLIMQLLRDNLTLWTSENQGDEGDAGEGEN
UniProt P63104: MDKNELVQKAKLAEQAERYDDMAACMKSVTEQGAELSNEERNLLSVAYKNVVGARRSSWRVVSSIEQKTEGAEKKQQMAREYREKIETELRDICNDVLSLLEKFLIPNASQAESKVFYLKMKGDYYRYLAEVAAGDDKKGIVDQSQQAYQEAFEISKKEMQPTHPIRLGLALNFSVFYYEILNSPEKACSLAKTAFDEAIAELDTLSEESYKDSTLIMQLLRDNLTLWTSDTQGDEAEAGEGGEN
UniProt P62258: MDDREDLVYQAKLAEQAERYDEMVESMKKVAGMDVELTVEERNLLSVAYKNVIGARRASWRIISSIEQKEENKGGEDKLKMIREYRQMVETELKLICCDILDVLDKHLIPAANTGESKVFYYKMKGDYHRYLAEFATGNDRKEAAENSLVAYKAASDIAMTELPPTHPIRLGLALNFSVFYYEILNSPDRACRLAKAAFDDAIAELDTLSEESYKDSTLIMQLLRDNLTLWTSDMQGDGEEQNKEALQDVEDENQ

T1: 14-3-3σΔC (residues 231–248 deleted) (human) (UniProt P31947)
T1 sequence: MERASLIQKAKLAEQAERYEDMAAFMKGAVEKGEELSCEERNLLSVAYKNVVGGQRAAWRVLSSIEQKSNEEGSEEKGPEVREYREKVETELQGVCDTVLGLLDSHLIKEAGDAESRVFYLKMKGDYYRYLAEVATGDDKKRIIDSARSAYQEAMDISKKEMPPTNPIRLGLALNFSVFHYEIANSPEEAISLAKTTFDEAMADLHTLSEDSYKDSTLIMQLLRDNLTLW

T2: SHN3pT869 peptide, N-terminally FITC-Ahx-labelled (human)
T2 sequence (peptide, phosphothreonine at 869; FITC-Ahx on the N-terminus): PDRPDTEPEPPP

B1: 14-3-3γ (full length) (protein, UniProt P61981 1-247)
chain: MVDREQLVQKARLAEQAERYDDMAAAMKNVTELNEPLSNEERNLLSVAYKNVVGARRSSWRVISSIEQKTSADGNEKKIEMVRAYREKIEKELEAVCQDVLSLLDNYLIKNCSETQYESKVFYLKMKGDYYRYLAEVATGEKRATVVESSEKAYSEAHEISKEHMQPTHPIRLGLALNYSVFYYEIQNAPEQACHLAKTAFDDAIAELDTLNEDSYKDSTLIMQLLRDNLTLWTSDQQDDDGGEGNN
B2: 14-3-3τ (full length) (protein, UniProt P27348 1-245)
chain: MEKTELIQKAKLAEQAERYDDMATCMKAVTEQGAELSNEERNLLSVAYKNVVGGRRSAWRVISSIEQKTDTSDKKLQLIKDYREKVESELRSICTTVLELLDKYLIANATNPESKVFYLKMKGDYFRYLAEVACGDDRKQTIDNSQGAYQEAFDISKKEMQPTHPIRLGLALNFSVFYYEILNNPELACTLAKTAFDEAIAELDTLNEDSYKDSTLIMQLLRDNLTLWTSDSAGEECDAAEGAEN
B3: 14-3-3η (full length) (protein, UniProt Q04917 1-246)
chain: MGDREQLLQRARLAEQAERYDDMASAMKAVTELNEPLSNEDRNLLSVAYKNVVGARRSSWRVISSIEQKTMADGNEKKLEKVKAYREKIEKELETVCNDVLSLLDKFLIKNCNDFQYESKVFYLKMKGDYYRYLAEVASGEKKNSVVEASEAAYKEAFEISKEQMQPTHPIRLGLALNFSVFYYEIQNAPEQACLLAKQAFDDAIAELDTLNEDSYKDSTLIMQLLRDNLTLWTSDQQDEEAGEGN

The molecules below were run against T1, 14-3-3σΔC (residues 231–248 deleted) (human) (assay: crystal structure; 14-3-3σΔC at 10–15 mg/ml mixed with peptide in 1:1 and 1:1.2 molar ratios, overnight at 4°C in 20 mM HEPES pH 7.5, 2 mM MgCl2; crystals in 95 mM HEPES pH 7.1–7.7, 24–29% PEG 400, 190 mM CaCl2, 5% glycerol at 4°C; both purified).

binding, binds weakly:
PDRPDTEPEPPP (phosphothreonine at 869; N-terminal acetyl) [SHN3pT869 peptide, N-terminally acetylated]

These molecules were tested against T2, SHN3pT869 peptide, N-terminally FITC-Ahx-labelled (human) (assay: fluorescence polarisation; 14-3-3 isoforms (full length) serially diluted twofold in the presence of 10 nM FITC-labelled peptide; 50 mM Tris pH 7.5, 150 mM NaCl, 5 mM MgCl2, 0.05% Tween-20 (no reducing agent listed); one-site specific binding model; both purified).

binding, binds weakly:
14-3-3β (full length) (from UniProt P31946 1-246)
14-3-3ζ (full length) (from UniProt P63104 1-245)
14-3-3ɛ (full length) (from UniProt P62258 1-255)
B1
B2
B3
